# This is one part of the list.
# Columns and labels:
# Assay in all cases: NMR binding call after quantification (hit when 2 of 3 NMR criteria are met) (binary (1 = binding, 0 = not binding)); higher = binding
# Conditions in all cases: RNA concentration 10 µM; fragment concentration 200 µM; 293 K
# [1] = system: SARS-CoV-2 5_SL7 RNA
# [2] = system: SARS-CoV-2 5_SL8 RNA
# [3] = system: SARS-CoV-2 attenuator hairpin (att HP) RNA
# [4] = system: SARS-CoV-2 frameshift pseudoknot (PK) RNA
SMILES,NMR binding call [1],NMR binding call [2],NMR binding call [3],NMR binding call [4]
CNC1CCCN(c2cccnn2)C1 (configuration not stated),0,0,0,0
COCC(=O)Nc1ccccc1,0,0,0,0
CC(=O)NCc1ccc(S(N)(=O)=O)cc1,0,0,0,0
CNC(=O)Nc1nc2ccc(OC)cc2s1,1,0,0,1
CN1CCN(c2ccc(C#N)cc2)CC1,1,0,0,0
CC(C)C(=O)NCC1CCCNC1 (configuration not stated),0,0,0,0
CNC(C)c1ccc(F)cc1.Cl (configuration not stated),0,0,0,0
CS(=O)(=O)Cc1nc2ccccc2[nH]1,0,0,0,0
Cc1nccn1CC(C)O (configuration not stated),0,0,0,0
Cc1cncc(NCc2ccncc2)c1,0,0,0,0
Nc1ccc(S(=O)(=O)Nc2ccccn2)cc1,0,0,0,0
Cn1ccc(C(=O)NCC2CCCO2)n1 (configuration not stated),0,0,0,0
Cc1ccc(OCC(=O)N2CCOCC2)c(C)c1,0,0,0,0
CSc1nsc(NC(C)=O)n1,0,0,0,0
O=C(NCCC1=CCCCC1)c1cnccn1,0,0,0,0
CCNCc1cccc2[nH]ccc12,0,0,0,0
O=C(NCCc1ccccc1)NC1CCCCC1,0,0,0,0
Oc1ccc(CN2CCCC2)c2cccnc12,0,0,0,0
CNCCC1CCCCC1,0,0,0,0
Cl.O=C(O)CN1CCC(c2ccccc2)CC1,0,0,0,0
c1csc(-c2nc(N3CCCCC3)no2)c1,0,0,0,0
COC(=O)COc1ccc(C#N)cc1,0,0,0,0

SMILES,NMR binding call [1],NMR binding call [2],NMR binding call [3],NMR binding call [4]
O=C(CN1CCCC1)Nc1cccc(Cl)c1,0,0,0,0
CC(=O)N1CCC(c2c[nH]c3ccccc23)CC1,0,0,0,0
COc1ccc(CNC(=O)c2csnn2)cc1,0,0,0,0
CC(N)C(=O)N1CCCCC1C (configuration not stated),0,0,0,0
CC(=O)Nc1cccc(C(=O)O)c1C,0,0,0,0
CCOc1ccc(NC(=O)c2cnccn2)cc1,0,0,0,0
NC(=S)Nc1ccc(OC(F)(F)F)cc1,0,0,0,0
Fc1ccc(CNCC2CCCO2)cc1 (configuration not stated),0,0,0,0
CC1(C)CN(C(=O)CC(F)(F)F)CCO1,0,0,0,0
CC(=O)NC1CNc2ccccc2C1 (configuration not stated),0,0,0,0
CC(C)COc1ccc(C(=O)N2CCCC2)cc1,0,0,0,0
Oc1ccc(CN2CCc3ccccc3C2)cc1,0,0,0,0
O=C(O)c1cccc(NC(=O)c2ccno2)c1,0,0,0,0
CC(Cc1ccc(Br)cc1)C(N)=O (configuration not stated),0,0,0,0
COc1ccc(CNC(=O)CC#N)cc1,0,0,0,0
CC(C)NCc1ccc(N(C)C)cc1,0,0,0,0
Cc1cccc(C(=O)NC(C)C2CC2)n1 (configuration not stated),0,0,0,0
Cc1ccccc1OCC(=O)Nc1ncccn1,0,0,0,0
CC(N)c1nc(Cc2ccccc2)no1.Cl (configuration not stated),0,0,0,0
Cc1cc(C(=O)NCC2CCOC2)on1 (configuration not stated),0,0,0,0
O=C(COC(F)F)N1CCCC2(CC2)C1,0,0,0,0

# Single records, from the list above. Values in the order: NMR binding call [1] | NMR binding call [2] | NMR binding call [3] | NMR binding call [4]
# O=C(COC(F)F)N1CCCC2(CC2)C1 reads 0 | 0 | 0 | 0
# COc1ccc(CNC(=O)c2csnn2)cc1 reads 0 | 0 | 0 | 0
